Laboratory results as given in the supplement of paper PMC10849652.
Some of the results follow.

By UniProt entry, the sequences of proteins in these tests, tags left out. Where a name states a change or a piece, a line headed by the entry shows the natural chain unless it says otherwise.
UniProt Q9NYG5, whole entry, looked up: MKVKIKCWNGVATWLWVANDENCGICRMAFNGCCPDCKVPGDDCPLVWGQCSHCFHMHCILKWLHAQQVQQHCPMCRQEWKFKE
UniProt P49189: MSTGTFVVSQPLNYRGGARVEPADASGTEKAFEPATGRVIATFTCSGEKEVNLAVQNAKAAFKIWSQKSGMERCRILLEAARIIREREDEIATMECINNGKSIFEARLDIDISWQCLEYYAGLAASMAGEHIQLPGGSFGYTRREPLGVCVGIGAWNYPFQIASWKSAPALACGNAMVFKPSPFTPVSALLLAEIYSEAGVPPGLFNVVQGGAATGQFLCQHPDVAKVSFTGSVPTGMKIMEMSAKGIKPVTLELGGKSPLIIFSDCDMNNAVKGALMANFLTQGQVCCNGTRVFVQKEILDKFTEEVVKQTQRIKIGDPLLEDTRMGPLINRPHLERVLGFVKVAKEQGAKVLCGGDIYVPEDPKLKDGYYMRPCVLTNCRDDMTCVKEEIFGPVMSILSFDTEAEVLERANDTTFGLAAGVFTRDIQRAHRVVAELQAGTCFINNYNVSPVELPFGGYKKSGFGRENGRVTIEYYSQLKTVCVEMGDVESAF
UniProt Q9NXW9: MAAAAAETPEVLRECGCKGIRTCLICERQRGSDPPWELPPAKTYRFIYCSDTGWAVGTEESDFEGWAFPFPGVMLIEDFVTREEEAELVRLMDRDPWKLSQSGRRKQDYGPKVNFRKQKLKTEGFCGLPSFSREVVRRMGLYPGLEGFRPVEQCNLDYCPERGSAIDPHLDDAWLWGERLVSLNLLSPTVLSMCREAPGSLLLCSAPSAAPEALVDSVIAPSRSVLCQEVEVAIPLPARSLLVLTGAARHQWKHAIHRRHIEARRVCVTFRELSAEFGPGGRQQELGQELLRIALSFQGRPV
UniProt P55196: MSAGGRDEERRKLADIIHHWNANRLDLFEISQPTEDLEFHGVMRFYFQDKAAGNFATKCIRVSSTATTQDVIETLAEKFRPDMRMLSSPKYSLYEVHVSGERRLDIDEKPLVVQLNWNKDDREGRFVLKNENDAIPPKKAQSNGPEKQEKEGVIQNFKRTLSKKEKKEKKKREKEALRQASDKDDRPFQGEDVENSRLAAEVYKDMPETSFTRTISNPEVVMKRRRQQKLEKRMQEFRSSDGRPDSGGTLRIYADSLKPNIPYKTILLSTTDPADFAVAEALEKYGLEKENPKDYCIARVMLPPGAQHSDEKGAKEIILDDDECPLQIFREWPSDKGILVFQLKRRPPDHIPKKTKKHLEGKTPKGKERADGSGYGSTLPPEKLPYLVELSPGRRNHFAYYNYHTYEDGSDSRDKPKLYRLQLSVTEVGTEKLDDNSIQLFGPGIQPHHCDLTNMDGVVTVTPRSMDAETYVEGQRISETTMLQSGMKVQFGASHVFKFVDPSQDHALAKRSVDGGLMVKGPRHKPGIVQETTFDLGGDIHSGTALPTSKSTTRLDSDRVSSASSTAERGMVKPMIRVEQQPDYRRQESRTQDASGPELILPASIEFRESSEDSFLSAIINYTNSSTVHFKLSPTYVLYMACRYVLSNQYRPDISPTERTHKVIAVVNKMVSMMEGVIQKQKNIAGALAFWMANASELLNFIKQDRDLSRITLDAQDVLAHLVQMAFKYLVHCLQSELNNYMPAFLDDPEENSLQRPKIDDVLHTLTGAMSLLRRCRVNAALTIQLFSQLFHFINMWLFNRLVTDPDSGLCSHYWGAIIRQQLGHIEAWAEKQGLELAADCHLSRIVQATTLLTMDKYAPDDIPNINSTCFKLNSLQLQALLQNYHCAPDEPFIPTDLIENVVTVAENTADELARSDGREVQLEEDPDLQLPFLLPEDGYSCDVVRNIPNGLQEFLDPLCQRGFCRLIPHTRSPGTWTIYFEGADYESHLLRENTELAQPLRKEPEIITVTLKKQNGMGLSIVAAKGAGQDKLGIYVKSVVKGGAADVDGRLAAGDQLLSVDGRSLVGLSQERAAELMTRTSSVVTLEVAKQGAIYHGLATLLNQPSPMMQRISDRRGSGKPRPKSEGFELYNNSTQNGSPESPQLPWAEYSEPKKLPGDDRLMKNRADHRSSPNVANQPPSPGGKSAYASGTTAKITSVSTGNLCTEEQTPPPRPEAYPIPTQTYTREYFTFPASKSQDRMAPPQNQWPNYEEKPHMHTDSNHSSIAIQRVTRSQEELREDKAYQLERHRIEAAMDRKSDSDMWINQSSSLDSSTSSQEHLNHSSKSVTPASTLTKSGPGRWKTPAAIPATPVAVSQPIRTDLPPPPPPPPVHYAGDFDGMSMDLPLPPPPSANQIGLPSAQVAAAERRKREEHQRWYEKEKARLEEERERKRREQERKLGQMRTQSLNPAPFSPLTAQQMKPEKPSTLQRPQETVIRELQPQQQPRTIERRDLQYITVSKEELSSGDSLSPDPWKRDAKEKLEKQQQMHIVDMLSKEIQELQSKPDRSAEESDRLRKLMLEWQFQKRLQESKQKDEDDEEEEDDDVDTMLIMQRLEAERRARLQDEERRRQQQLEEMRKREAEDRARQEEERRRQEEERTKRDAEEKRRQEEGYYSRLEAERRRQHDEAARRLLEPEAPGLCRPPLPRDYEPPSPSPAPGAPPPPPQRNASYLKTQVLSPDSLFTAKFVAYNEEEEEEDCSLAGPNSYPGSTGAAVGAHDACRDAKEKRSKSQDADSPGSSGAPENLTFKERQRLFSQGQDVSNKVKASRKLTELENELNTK
UniProt Q9Y4X0: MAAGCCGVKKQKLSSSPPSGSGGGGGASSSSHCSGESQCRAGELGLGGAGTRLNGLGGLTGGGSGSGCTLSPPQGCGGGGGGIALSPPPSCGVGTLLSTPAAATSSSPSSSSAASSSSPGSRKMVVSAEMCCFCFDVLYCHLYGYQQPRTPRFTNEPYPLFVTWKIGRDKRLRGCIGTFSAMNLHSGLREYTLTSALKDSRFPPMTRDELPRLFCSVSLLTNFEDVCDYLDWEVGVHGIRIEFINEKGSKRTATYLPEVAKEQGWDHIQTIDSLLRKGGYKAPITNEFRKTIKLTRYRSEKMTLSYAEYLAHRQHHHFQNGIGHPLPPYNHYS
UniProt Q96F25: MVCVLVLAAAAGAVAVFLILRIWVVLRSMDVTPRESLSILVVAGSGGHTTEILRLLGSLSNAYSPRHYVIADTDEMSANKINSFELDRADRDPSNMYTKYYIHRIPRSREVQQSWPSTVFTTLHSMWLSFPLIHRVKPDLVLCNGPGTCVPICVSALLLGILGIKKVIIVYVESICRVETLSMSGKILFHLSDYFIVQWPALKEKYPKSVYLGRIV
UniProt Q86W34: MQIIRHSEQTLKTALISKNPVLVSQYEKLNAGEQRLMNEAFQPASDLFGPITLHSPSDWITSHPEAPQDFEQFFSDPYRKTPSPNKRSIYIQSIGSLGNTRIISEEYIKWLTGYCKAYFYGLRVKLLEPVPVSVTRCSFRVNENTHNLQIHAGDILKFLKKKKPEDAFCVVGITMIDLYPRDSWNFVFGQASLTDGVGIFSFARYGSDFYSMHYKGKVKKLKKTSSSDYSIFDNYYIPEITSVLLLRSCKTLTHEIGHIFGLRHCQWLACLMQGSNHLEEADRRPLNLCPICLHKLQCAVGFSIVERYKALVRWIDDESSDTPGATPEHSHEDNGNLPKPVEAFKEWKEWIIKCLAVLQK
UniProt O75342: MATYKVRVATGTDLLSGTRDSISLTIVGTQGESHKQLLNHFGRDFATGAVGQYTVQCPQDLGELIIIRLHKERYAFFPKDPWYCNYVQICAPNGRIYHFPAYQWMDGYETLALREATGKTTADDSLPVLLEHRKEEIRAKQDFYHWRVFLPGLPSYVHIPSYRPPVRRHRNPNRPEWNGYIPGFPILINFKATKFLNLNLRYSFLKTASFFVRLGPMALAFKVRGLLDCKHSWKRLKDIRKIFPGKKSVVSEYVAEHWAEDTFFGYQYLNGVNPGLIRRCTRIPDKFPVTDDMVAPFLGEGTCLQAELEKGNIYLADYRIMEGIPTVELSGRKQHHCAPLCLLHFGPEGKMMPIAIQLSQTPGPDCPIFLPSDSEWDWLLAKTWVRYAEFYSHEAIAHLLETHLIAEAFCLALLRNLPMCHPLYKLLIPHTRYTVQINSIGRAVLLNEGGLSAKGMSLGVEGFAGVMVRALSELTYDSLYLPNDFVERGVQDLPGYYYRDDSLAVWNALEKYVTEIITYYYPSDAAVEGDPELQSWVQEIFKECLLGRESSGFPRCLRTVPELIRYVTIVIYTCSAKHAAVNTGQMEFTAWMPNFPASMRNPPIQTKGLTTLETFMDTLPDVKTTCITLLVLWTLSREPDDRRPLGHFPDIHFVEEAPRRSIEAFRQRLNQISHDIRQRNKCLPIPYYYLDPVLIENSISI
UniProt Q96Q42: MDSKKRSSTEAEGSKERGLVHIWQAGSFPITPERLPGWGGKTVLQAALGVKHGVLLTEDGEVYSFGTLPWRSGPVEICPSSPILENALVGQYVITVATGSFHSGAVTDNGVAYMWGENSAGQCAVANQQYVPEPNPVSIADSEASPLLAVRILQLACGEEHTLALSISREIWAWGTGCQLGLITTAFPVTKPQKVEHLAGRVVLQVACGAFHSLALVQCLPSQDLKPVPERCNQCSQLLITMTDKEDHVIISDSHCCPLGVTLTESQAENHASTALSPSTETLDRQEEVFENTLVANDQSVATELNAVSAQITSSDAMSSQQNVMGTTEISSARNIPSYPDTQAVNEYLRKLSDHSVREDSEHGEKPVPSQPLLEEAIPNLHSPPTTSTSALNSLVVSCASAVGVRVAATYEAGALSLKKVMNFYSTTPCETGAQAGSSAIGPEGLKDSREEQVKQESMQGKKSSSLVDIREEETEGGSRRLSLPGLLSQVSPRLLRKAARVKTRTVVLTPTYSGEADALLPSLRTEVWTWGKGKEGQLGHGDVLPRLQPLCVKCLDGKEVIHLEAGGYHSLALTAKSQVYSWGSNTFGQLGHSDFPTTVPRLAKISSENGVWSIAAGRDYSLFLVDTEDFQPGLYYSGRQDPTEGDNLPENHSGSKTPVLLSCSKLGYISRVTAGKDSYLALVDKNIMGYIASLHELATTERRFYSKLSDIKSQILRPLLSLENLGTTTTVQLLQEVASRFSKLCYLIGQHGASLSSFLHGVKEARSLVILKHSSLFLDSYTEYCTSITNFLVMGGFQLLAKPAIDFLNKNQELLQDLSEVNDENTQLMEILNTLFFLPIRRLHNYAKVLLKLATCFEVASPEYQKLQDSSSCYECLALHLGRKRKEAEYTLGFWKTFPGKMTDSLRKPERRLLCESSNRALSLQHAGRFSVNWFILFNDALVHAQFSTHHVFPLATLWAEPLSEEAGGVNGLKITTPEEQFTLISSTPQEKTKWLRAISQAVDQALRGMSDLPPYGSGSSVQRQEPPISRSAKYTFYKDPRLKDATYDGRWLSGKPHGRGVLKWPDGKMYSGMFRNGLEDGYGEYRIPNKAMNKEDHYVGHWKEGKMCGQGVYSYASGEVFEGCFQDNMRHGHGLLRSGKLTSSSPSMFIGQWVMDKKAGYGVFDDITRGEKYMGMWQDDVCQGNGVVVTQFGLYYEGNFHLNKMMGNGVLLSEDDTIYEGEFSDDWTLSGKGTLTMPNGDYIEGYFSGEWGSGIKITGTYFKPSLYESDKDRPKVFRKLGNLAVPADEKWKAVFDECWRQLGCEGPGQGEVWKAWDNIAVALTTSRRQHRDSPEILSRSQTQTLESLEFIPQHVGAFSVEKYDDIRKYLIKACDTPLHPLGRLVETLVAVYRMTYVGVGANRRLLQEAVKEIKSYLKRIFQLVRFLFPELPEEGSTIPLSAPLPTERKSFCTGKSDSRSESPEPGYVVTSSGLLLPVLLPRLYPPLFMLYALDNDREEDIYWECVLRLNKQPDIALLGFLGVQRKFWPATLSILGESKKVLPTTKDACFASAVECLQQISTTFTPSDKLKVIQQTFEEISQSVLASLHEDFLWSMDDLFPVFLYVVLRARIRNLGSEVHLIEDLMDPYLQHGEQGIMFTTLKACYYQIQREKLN
UniProt Q9BT30: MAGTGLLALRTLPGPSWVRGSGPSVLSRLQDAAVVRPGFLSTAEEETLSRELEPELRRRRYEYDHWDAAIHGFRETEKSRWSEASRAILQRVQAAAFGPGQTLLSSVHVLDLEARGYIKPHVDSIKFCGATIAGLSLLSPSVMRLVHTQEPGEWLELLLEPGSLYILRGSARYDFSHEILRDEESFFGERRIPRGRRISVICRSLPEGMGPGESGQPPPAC
UniProt Q04828: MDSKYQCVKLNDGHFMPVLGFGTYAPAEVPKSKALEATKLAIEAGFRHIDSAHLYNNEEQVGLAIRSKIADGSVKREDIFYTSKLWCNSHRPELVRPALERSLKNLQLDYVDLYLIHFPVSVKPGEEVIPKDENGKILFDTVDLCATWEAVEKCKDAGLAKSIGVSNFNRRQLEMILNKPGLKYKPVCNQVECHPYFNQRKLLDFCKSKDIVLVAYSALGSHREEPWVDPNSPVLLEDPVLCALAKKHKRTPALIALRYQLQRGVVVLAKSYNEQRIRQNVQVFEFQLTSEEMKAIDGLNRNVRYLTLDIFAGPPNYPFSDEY

Columns and labels:
Assay in all cases: log2 fold change, soluble protein after heating vs DMSO (PISA); higher = thermal stabilisation; K562 cells, 10 uM, 30 min; active = over 0.2 and 3.5 SD of the protein, either way, in both replicates (recomputed)
saracatinib = compound: CN1CCN(CCOc2cc(OC3CCOCC3)c3c(Nc4c(Cl)ccc5c4OCO5)ncnc3c2)CC1 [saracatinib]
Summary of the method: (§1)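 Values are thermal stability changes relative to control samples and are taken from duplicates. They are stated as log2 fold changes. Before quantification by TMTpro 16plex LC-MS/MS with equalised channel sums, K562 cells at 2×10^6 cells/mL were treated with 10 μM compound for 30 min, heated in aliquots for 3 min across 48°C-58°C, pooled, extracted in PBS with 0.5% NP-40 at 4°C, and centrifuged at 21,000xg for 90 min to give the soluble supernatant.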

alvocidib = compound: CN1CC[C@H](c2c(O)cc(O)c3c(=O)cc(-c4ccccc4Cl)oc23)[C@H](O)C1 [alvocidib]
Summary of the method: as §1

[1] = compound: CNC(=O)C1=CC=CC=C1NC2=NC(=NC=C2Cl)NC3=C(C=C(C=C3)N4CCOCC4)OC
Summary of the method: as §1

defactinib = compound: CNC(=O)c1ccc(Nc2ncc(C(F)(F)F)c(NCc3nccnc3N(C)S(C)(=O)=O)n2)cc1 [defactinib]
Summary of the method: as §1

rucaparib = compound: CNCc1ccc(-c2[nH]c3cc(F)cc4c3c2CCNC4=O)cc1 [rucaparib]
Summary of the method: as §1

[2] = compound: CNc1nc(-c2ccc3c(N)n[nH]c3c2)cc(N2C[C@@H](C(=O)NC3CCCCC3)CC[C@H]2C)n1
Summary of the method: as §1

encorafenib = compound: COC(=O)N[C@@H](C)CNc1nccc(-c2cn(C(C)C)nc2-c2cc(Cl)cc(NS(C)(=O)=O)c2F)n1 [encorafenib]
Summary of the method: as §1

[3] = compound: COC(=O)[C@H](CCSC)NC(=O)C1=C(C=C(C=C1)NC[C@H](CS)N)C2=CC=CC=C2
Summary of the method: as §1

zotarolimus = compound: CO[C@H]1C[C@@H]2CC[C@@H](C)[C@@](O)(O2)C(=O)C(=O)N2CCCC[C@H]2C(=O)O[C@H]([C@H](C)C[C@@H]2CC[C@H](n3cnnn3)[C@H](OC)C2)CC(=O)[C@H](C)/C=C(\C)[C@@H](O)[C@@H](OC)C(=O)[C@H](C)C[C@H](C)/C=C/C=C/C=C/1C [zotarolimus]
Summary of the method: as §1

idasanutlin = compound: COc1cc(C(=O)O)ccc1NC(=O)[C@@H]1N[C@@H](CC(C)(C)C)[C@](C#N)(c2ccc(Cl)cc2F)[C@H]1c1cccc(Cl)c1F [idasanutlin]
Summary of the method: as §1

alisertib = compound: COc1cc(Nc2ncc3c(n2)-c2ccc(Cl)cc2C(c2c(F)cccc2OC)=NC3)ccc1C(=O)O [alisertib]
Summary of the method: as §1

[4] = compound: COc1cc2nc(-c3cc(F)ccc3O)nc(N[C@@H]3CNC[C@H]3C(C)(C)O)c2cc1OC
Summary of the method: as §1

gefitinib = compound: COc1cc2ncnc(Nc3ccc(F)c(Cl)c3)c2cc1OCCCN1CCOCC1 [gefitinib]
Summary of the method: as §1

[5] = compound: COc1cccc2cc(-c3nc([C@H]4CC[C@H](C(=O)O)CC4)n4ncnc(N)c34)[nH]c12
Summary of the method: as §1

lapatinib = compound: CS(=O)(=O)CCNCc1ccc(-c2ccc3ncnc(Nc4ccc(OCc5cccc(F)c5)c(Cl)c4)c3c2)o1 [lapatinib]
Summary of the method: as §1

pictilisib = compound: CS(=O)(=O)N1CCN(Cc2cc3nc(-c4cccc5[nH]ncc45)nc(N4CCOCC4)c3s2)CC1 [pictilisib]
Summary of the method: as §1

sotrastaurin = compound: CN1CCN(c2nc(C3=C(c4c[nH]c5ccccc45)C(=O)NC3=O)c3ccccc3n2)CC1 [sotrastaurin]
Summary of the method: as §1

Tubastatin A = compound: CN1CCc2c(c3ccccc3n2Cc2ccc(C(=O)NO)cc2)C1 [Tubastatin A]
Summary of the method: as §1

filanesib = compound: CON(C)C(=O)N1N=C(c2cc(F)ccc2F)S[C@@]1(CCCN)c1ccccc1 [filanesib]
Summary of the method: as §1

[6] = compound: COC1=CC=C(C=C1)CN2C=CC3=C2C=C(C=C3)C(=O)NO
Summary of the method: as §1

Measured: log2 fold change

ANAPC11 (UniProt Q9NYG5)
inactive: saracatinib 0.1 | alvocidib 0.023 | [1] 0.268 | defactinib 0.059 | rucaparib 0.062 | [2] -0.053 | encorafenib 0.093 | [3] 0.019 | zotarolimus 0.003

ALG13 isoform 2 (UniProt Q9NP73)
inactive: saracatinib 0.022 | defactinib 0.071 | [2] -0.032 | [3] -0.027 | idasanutlin 0.029 | alisertib 0.016 | [4] -0.063 | gefitinib -0.005 | [5] 0.029 | lapatinib -0.017 | pictilisib -0.069

ALDH9A1 (UniProt P49189)
inactive: saracatinib 0.005 | sotrastaurin 0.032 | Tubastatin A -0.019 | [1] 0.016 | defactinib -0.008 | rucaparib -0.014 | [2] -0.041 | encorafenib 0.023 | [3] -0.058 | filanesib -0.149 | zotarolimus -0.164 | idasanutlin -0.073 | alisertib -0.091 | [4] 0.038 | gefitinib 0.039 | [5] 0.081 | lapatinib -0.037 | pictilisib -0.124

ALKBH4 (UniProt Q9NXW9)
inactive: saracatinib -0.072 | sotrastaurin -0.106 | Tubastatin A 0.086 | [1] 0.198 | defactinib -0.056 | rucaparib 0.07 | [2] 0.03 | encorafenib 0.074 | [3] 0.071 | [6] -0.203 | filanesib -0.036 | zotarolimus 0.06 | idasanutlin -0.036 | alisertib 0.086 | [4] -0.058 | [5] 0.014 | lapatinib -0.023 | pictilisib 0.106

AFDN isoform 5 (UniProt P55196)
inactive: saracatinib -0.034 | sotrastaurin -0.032 | Tubastatin A 0.025 | [1] -0.043 | defactinib -0.115 | rucaparib 0.023 | [2] 0.035 | encorafenib 0.077 | [3] -0.033 | [6] 0.131 | filanesib 0.014 | zotarolimus 0.013 | idasanutlin -0.06 | alisertib 0 | [4] 0.034 | gefitinib -0.017 | [5] -0.009 | lapatinib -0.026 | pictilisib -0.009

ADGRV1 (UniProt Q8WXG9)
inactive: sotrastaurin 0.034 | alvocidib 0.064 | rucaparib -0.221 | encorafenib 0.012 | [6] -0.327 | filanesib 0.13 | zotarolimus -0.038 | alisertib 0.222 | gefitinib 0.014 | [5] 0.08 | pictilisib -0.508

ADCY7 (UniProt P51828)
inactive: saracatinib 0.008 | alvocidib -0.036 | [2] -0.04 | zotarolimus -0.034 | idasanutlin -0.348 | gefitinib 0.14 | pictilisib 0.081

AMMECR1 (UniProt Q9Y4X0)
inactive: saracatinib -0.09 | alvocidib -0.172 | [1] 0.159 | defactinib -0.047 | [2] 0.078 | [3] -0.048 | zotarolimus 0.066 | idasanutlin 0.058

ALG14 (UniProt Q96F25)
inactive: saracatinib 0.049 | Tubastatin A -0.027 | [1] -0.001 | defactinib 0.091 | rucaparib -0.173 | [2] -0.022 | encorafenib 0.028 | [3] -0.002 | [6] -0.2 | zotarolimus -0.109 | idasanutlin -0.091 | alisertib 0.112 | [4] -0.19 | gefitinib 0.074 | [5] 0.077 | lapatinib 0.168 | pictilisib -0.467

Fetched one by one from the list above, 2 records:
ADGRV1 (UniProt Q8WXG9)
inactive: sotrastaurin 0.034 | alvocidib 0.064 | rucaparib -0.221 | encorafenib 0.012 | [6] -0.327 | filanesib 0.13 | zotarolimus -0.038 | alisertib 0.222 | gefitinib 0.014 | [5] 0.08 | pictilisib -0.508

ALG14 (UniProt Q96F25)
inactive: saracatinib 0.049 | Tubastatin A -0.027 | [1] -0.001 | defactinib 0.091 | rucaparib -0.173 | [2] -0.022 | encorafenib 0.028 | [3] -0.002 | [6] -0.2 | zotarolimus -0.109 | idasanutlin -0.091 | alisertib 0.112 | [4] -0.19 | gefitinib 0.074 | [5] 0.077 | lapatinib 0.168 | pictilisib -0.467

Additional entries follow.

AMZ2 (UniProt Q86W34)
inactive: saracatinib 0.06 | sotrastaurin -0.111 | [2] -0.013 | filanesib -0.007 | alisertib -0.042 | [4] 0.024 | [5] 0.328 | lapatinib -0.059

ALOX12B (UniProt O75342)
inactive: saracatinib -0.333 | sotrastaurin -0.046 | Tubastatin A 0.238 | defactinib 0.206 | rucaparib 0.056 | [2] 0.294 | encorafenib -0.137 | [3] 0.013 | filanesib 0.059 | idasanutlin 0.254 | alisertib 1.21 | [4] 0.309 | [5] 0.145 | lapatinib -0.137

AFF4 (UniProt Q9UHB7)
inactive: saracatinib 0.205 | sotrastaurin -0.365 | [1] 0.025 | [2] -0.337 | filanesib 0.251 | idasanutlin 0.045 | alisertib 0.267 | [5] 0.301 | pictilisib -0.22

ALDH7A1 (UniProt P49419)
inactive: sotrastaurin -0.074 | rucaparib 0 | encorafenib -0.098 | filanesib -0.003 | alisertib 0.827 | [5] -0.23 | pictilisib -0.016

ALS2 (UniProt Q96Q42)
inactive: Tubastatin A 0.014 | [1] -0.059 | [4] -0.02 | lapatinib -0.066

ADGB (UniProt Q8N7X0)
inactive: rucaparib 0.348 | encorafenib -0.514 | [6] -0.342 | alisertib 0.55 | [4] 0.008 | [5] -0.035 | lapatinib -0.063 | pictilisib 0.246

ALKBH7 (UniProt Q9BT30)
inactive: alvocidib 0.176 | zotarolimus -0.091 | pictilisib 0.071

AKAP9 isoform 6 (UniProt Q99996)
inactive: alvocidib 0.3 | rucaparib -0.036 | encorafenib -0.08 | [6] -0.051 | zotarolimus 0.321 | alisertib 0.022 | gefitinib 0.055 | [5] 0.074

AKR1C1 (UniProt Q04828)
inactive: alisertib -0.01 | [5] -0.31

ADD1 isoform 4 (UniProt P35611)
inactive: [6] -0.054 | zotarolimus -0.065 | pictilisib -0.068
